Measured values: publication PMC6759600
These are yes or no findings as the source states them, for the method shown. In cells and extracts the contact can be indirect. Some binding calls cover weakened binding; strength is not graded here. Sequences can lack the tags named with a protein.

By UniProt entry, the sequences of proteins in these tests, tags left out.
UniProt Q96SW2: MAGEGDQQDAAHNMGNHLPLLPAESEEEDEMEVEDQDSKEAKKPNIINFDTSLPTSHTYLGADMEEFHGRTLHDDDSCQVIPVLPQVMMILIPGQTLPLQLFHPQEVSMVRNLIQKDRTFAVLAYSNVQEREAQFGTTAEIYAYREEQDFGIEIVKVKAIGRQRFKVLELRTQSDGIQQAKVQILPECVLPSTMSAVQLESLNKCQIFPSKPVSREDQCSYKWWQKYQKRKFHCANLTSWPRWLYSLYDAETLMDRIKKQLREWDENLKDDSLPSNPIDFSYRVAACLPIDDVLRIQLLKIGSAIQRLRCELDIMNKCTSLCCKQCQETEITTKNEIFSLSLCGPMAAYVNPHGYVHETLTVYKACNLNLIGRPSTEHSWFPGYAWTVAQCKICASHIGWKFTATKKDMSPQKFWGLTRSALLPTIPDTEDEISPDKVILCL

Key:
Myc-ECSIT = biological target: T1, Myc-ECSIT (UniProt Q9BQ95); assay: co-IP; HEK293T cells co-transfected with Myc-ECSIT, Flag-TRAF6 and different concentrations of Flag-CRBN vector; IP with anti-Myc antibody, immunoblot with anti-Flag, anti-Myc or anti-TRAF6
T1 sequence: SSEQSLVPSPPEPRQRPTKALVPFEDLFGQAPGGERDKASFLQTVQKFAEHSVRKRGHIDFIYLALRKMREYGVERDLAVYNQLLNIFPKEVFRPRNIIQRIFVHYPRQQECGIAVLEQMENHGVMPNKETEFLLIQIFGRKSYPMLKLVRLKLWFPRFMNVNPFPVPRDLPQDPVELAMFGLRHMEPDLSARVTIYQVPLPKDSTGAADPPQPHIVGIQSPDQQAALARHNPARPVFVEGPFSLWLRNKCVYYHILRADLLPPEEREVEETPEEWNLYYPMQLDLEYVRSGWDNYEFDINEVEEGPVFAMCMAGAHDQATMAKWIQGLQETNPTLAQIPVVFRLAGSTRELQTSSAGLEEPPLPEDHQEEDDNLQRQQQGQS

Flag-ECSIT 1-100 = biological target: T2, Flag-ECSIT 1-100 (UniProt Q9BQ95); assay: co-IP; HEK293T cells co-transfected, harvested 38 h after transfection; IP with anti-Flag antibody, immunoblot with anti-Flag or anti-Myc
T2 sequence: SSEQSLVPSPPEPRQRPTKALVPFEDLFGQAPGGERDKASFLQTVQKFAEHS

Flag-ECSIT 1-300 = biological target: T3, Flag-ECSIT 1-300 (UniProt Q9BQ95); assay: as above
T3 sequence: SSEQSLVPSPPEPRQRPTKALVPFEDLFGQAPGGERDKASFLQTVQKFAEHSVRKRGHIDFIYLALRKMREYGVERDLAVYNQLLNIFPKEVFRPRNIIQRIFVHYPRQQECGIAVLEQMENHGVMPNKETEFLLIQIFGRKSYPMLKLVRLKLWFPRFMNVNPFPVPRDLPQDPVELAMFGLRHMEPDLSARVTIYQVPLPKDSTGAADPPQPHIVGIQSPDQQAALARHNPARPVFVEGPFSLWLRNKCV

Flag-ECSIT 1-200 = biological target: T4, Flag-ECSIT 1-200 (UniProt Q9BQ95); assay: as above
T4 sequence: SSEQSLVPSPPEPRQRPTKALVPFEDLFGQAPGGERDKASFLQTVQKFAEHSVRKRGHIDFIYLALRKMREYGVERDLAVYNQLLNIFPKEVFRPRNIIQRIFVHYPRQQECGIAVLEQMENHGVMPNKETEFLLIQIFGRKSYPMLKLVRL

Flag-ECSIT wild type = biological target: T5, Flag-ECSIT wild type (UniProt Q9BQ95); assay: as above
T5 sequence: T1 sequence

| Substance | binding (Myc-ECSIT) | binding (Flag-ECSIT 1-100) | binding (Flag-ECSIT 1-300) | binding (Flag-ECSIT 1-200) | binding (Flag-ECSIT wild type) |
| --- | --- | --- | --- | --- | --- |
| Flag-CRBN (from UniProt Q96SW2 1-442) | binds | – | – | – | – |
| Myc-CRBN wild type (from UniProt Q96SW2 1-442) | – | no binding | binds | no binding | binds |
